Experimental data as given in publication doi:10.1101/2024.06.05.597643, “Identification and characterization of a human MORC2 DNA binding region that is required for gene silencing” (bioRxiv, 2024).
No constants are given. Whether binding was seen depends on the method and setting.

Sequences of proteins named here, by UniProt entry; tags and fusion partners are left off. Residues count along the entry.
UniProt Q9Y6X9, residues 1-603: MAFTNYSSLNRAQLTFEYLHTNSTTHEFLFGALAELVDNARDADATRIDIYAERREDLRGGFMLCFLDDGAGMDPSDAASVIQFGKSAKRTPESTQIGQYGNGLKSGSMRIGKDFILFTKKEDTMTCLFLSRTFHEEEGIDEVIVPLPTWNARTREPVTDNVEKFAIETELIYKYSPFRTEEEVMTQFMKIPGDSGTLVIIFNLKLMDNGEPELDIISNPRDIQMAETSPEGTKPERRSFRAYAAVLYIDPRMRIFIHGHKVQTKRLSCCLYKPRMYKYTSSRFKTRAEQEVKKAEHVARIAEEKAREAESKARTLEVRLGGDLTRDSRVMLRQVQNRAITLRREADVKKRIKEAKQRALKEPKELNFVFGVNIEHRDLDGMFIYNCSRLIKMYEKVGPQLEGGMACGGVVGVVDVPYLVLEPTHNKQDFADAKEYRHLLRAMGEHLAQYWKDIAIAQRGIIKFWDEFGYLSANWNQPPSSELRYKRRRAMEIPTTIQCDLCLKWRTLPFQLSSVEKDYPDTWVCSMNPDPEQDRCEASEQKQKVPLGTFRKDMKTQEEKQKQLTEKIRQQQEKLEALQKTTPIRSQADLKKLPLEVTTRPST

Target: MORC2 1-603 (human) (UniProt Q9Y6X9)
Assay: SEC-MALS; 1-603 MORC2 1 mg/mL, 50 mM NaCl, 3 mM MgCl2, 20 mM Na-HEPES pH 7.4, 0.5 mM TCEP, 1.5% glycerol, 0.025 mM ZnCl2, without AMP-PNP; Wyatt 030 column; both purified

- binding: no binding (condition: without AMP-PNP)
Substance: MORC2 1-603 (from UniProt Q9Y6X9 1-603) (domain or fragment)
